From patent US20040248255A1
These are yes or no findings as the source states them, for the method shown. Some results given as binding are weak or reduced against the parent protein; the word gives no strength.

The chains behind the UniProt entries cited, without tags or fusion partners.
UniProt P25090: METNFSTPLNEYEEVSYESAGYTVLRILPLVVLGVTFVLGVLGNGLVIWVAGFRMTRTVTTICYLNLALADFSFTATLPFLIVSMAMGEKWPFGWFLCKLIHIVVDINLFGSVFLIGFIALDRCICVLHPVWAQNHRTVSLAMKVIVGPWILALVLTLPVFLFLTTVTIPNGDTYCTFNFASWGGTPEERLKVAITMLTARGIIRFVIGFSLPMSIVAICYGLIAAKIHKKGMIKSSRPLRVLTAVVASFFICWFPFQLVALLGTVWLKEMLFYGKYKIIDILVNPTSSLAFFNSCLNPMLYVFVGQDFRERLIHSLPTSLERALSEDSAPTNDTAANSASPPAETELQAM

Assays:
[1] = molecular target: formyl peptide receptor like 1 (FPRL1) (UniProt P25090); test: inferred from [Ca2+]i increase in FPRL1-expressing RBL-2H3 cells (fura-2); no direct binding assay
[2] = molecular target: formyl peptide receptor like 1 (FPRL1) (UniProt P25090); test: inferred from [Ca2+]i increase in FPRL1-expressing RBL-2H3 cells and HL60 cells; no direct binding assay

Row | Binder | binding [1] | binding [2]
1 | RKYHVM (C-terminal amide (-NH2)) [P14 (RKYHVM-NH2)] | binds | binds
2 | RKYYYM (C-terminal amide (-NH2)) [P18 (RKYYYM-NH2)] | binds | binds
3 | MKYYKM (C-terminal amide (-NH2)) [P21 (MKYYKM-NH2)] | binds | binds
4 | MKYYYM (C-terminal amide (-NH2)) [P24 (MKYYYM-NH2)] | binds | binds
